PubChem BioAssay AID662 (National Center for Advancing Translational Sciences (NCATS), 2007)
The list shows a part of the results. These are further read-outs of the screen, such as a control signal, another cell line or another target. No call is given for them. The list favours compounds with an active or inconclusive main result. Potencies come from curve fits of mixed quality, noted in brackets.

Experiment: Cell signaling CRE-BLA (Fsk stim)
Conditions: CHO CRE-bla reporter (cAMP response element driving beta-lactamase), forskolin EC10, beta-lactamase ratio; measured here: 460 nm blue channel
Method in brief: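 qHTS titration format; CRE-bla CHO reporter; stimulus EC10 NKH 477, a water-soluble forskolin. Read: CCF4 460/530 nm ratio. Potency expressed as AC50 for activators or inhibitors.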
With `COc1cc2c(cc1OC)-c1cc(Nc3ccc4c(c3)OCCO4)nc(=O)n1CC2` the AC50 was 5.01 µM [rising, partial curve].
In the case of `OC(c1cccc(OCc2ccccc2)c1)c1nnc(-c2ccccc2)o1` (stereo not drawn), the AC50 is reported as 3.98 µM [falling, single point].
For `COc1cccc(Cn2c(Oc3cccc(C)c3)nc3c2c(=O)n(C)c(=O)n3C)c1`, the AC50 was 0.126 µM [rising, single point].
With `CCOC(=O)c1oc2ccccc2c1NC(=O)C1CCCCC1` the AC50 was 2 µM [rising, full curve, poor fit].
With `O=C1CN(C(=O)CCCc2c[nH]c3ccccc23)c2ccccc2N1` the AC50 was 12.6 µM [rising, partial curve].
With `CCOC(=O)CSc1nnc(CNC(=O)c2cccs2)n1-c1cc(OC)ccc1OC` the AC50 was 0.0794 µM [falling, full curve].
With `O=C(CN1CCCCC1)Nc1cccc(Br)c1` the AC50 was 3.16 µM [falling, partial curve, poor fit].
For `Oc1ccc(Cl)cc1Cc1cc(Cl)cc(Cc2cc(Cl)ccc2O)c1O`, the AC50 was 3.98 µM [falling, single point].
With `CN(C)c1ncc2nc(-c3ccc(Cl)cc3)c(=O)n(Cc3ccc(F)cc3)c2n1` the AC50 was 2 µM [rising, partial curve].
For `CCc1nc2ccccc2n1CCC(C)C`, the AC50 was 12.6 µM [rising, single point].
In the case of `COc1ccccc1-c1nc(C#N)c(N2CCN(Cc3ccccc3)CC2)o1`, the AC50 is reported as 3.16 µM [rising, full curve, poor fit].
In the case of `CN(CCc1ccccn1)C(=O)c1nn2c(C(F)(F)F)cc(-c3ccco3)nc2c1Cl`, the AC50 is reported as 1.58 µM [rising, partial curve].
In the case of `COc1ccc(NC(=O)C2OCCc3ccccc32)c(OC)c1` (stereo not drawn), the AC50 is reported as 0.00398 µM [falling, full curve, poor fit].
With `Cn1c(=O)c(-c2ccc(F)cc2)nc2cnc(OCc3ccccc3)nc21` the AC50 was 15.8 µM [rising, partial curve].
In the case of `O=C1CC(c2ccc3c(c2)OCO3)c2cc3c(cc2N1)OCO3` (stereo not drawn), the AC50 is reported as 0.00316 µM [falling, full curve, poor fit].
In the case of `CCNc1ncc2nc(-c3ccccc3)c(=O)n(C3CC3)c2n1`, the AC50 is reported as 12.6 µM [rising, partial curve].
With `COc1ncnc2c1N[C@@](C)(O)c1c(F)c(F)c(F)c(F)c1S2` the AC50 was 25.1 µM [rising, single point].
For `Cc1ccc(S(=O)(=O)N2CCCC2C(=O)Nc2nc3ccccc3s2)cc1` (stereo not drawn), the AC50 was 10 µM [falling, single point].
With `COc1ccc(CCNC(=O)C2CCN(S(=O)(=O)N3CCOCC3)CC2)cc1OC` the AC50 was 3.16 µM [falling, partial curve].
In the case of `COc1ccc(-c2nnc(SCCOc3cccc(C)c3)n2N)cc1`, the AC50 is reported as 5.01 µM [falling, single point].
For `COc1ccc(-c2[nH]nc3oc(=O)cc(C)c23)cc1`, the AC50 was 12.6 µM [rising, partial curve].
For `CCOC(=O)c1c(NC(C)=O)sc2c(O)c(CN3CCN(CC)CC3)ccc12`, the AC50 was 12.6 µM [rising, single point].
For `O=C1CSC(c2ccccc2F)N1c1cc(Cl)ccc1O` (stereo not drawn), the AC50 was 12.6 µM [falling, single point].
In the case of `Cc1noc(C)c1C(=O)OCC(=O)/C=C1\N(C)c2ccccc2C1(C)C`, the AC50 is reported as 1.26 µM [rising, partial curve].
In the case of `CCOc1ccc(C2C(C#N)=C(N)N3C(=C2C#N)Sc2ccccc23)cc1` (stereo not drawn), the AC50 is reported as 12.6 µM [rising, partial curve].
With `C=CCSc1nc2c(c(=O)[nH]c(=O)n2C)n1Cc1ccc(C)cc1` the AC50 was 2.51 µM [rising, full curve].
For `C=CCNS(=O)(=O)c1ccc(OC)c(C)c1`, the AC50 was 0.00316 µM [falling, full curve, poor fit].
For `CCc1nc(SCC(=O)N2CCCC2)c2ccccc2n1`, the AC50 was 3.16 µM [rising, single point].
With `O=C1C2C(C(=O)N1Cc1ccco1)C1C=CC2C12CC2` (stereo not drawn) the AC50 was 5.01 µM [falling, single point].
For `CCN(CC)c1cccc(OCC(=O)N(C)CCC#N)c1`, the AC50 was 10 µM [rising, partial curve].
In the case of `Cc1cc(C)cc(-n2nnc(C(=O)NCc3ccco3)c2N)c1`, the AC50 is reported as 3.16 µM [rising, single point].
In the case of `CNc1nc(C)nc(-c2ccccc2O)n1`, the AC50 is reported as 12.6 µM [rising, partial curve].
With `Cc1c(NC(=O)c2cc(-c3ccccc3)on2)c(=O)n(-c2ccccc2)n1C` the AC50 was 0.0251 µM [falling, full curve, poor fit].
For `COc1ccc(CNc2ccnc(-c3ccc(N(C)C)cc3)n2)c(OC)c1`, the AC50 was 12.6 µM [rising, single point].
In the case of `O=C(NC(Cc1ccccc1)c1nc2ccccc2[nH]1)C1CC(=O)N(c2ccc3c(c2)OCCO3)C1` (stereo not drawn), the AC50 is reported as 0.1 µM [falling, single point].
For `COC(=O)Cn1c(=NC(=O)CSC(C)=O)sc2ccccc21`, the AC50 was 12.6 µM [rising, single point].
In the case of `Cc1noc(C)c1CSc1nnnn1-c1ccc(Cl)cc1`, the AC50 is reported as 15.8 µM [rising, single point].
For `CC(C)CC(C(=O)NCc1ccccn1)N1C(=O)c2ccccc2C1=O` (stereo not drawn), the AC50 was 1 µM [falling, single point].
With `CC(C)CN(CC(C)C)S(=O)(=O)N1CCC(C(=O)NCc2ccccn2)CC1` the AC50 was 0.1 µM [rising, partial curve].
In the case of `O=C(Nc1ccc(C(F)(F)F)cc1)C1CCCN1S(=O)(=O)c1cccc2cccnc12` (stereo not drawn), the AC50 is reported as 0.00794 µM [falling, full curve, poor fit].
In the case of `CC(=O)N(Cc1cc(=O)[nH]c2ccccc12)c1cccc(C)c1`, the AC50 is reported as 0.00501 µM [rising, full curve].
In the case of `CCCCCNC(=O)c1cc(S(=O)(=O)N2CCCCC2)ccc1F`, the AC50 is reported as 10 µM [rising, partial curve, poor fit].
In the case of `CCc1nc(N)c(C#N)c(-c2ccc(O)c(OC)c2)c1C`, the AC50 is reported as 12.6 µM [rising, partial curve].
